{"source": "PubChem BioAssay AID493014", "about": "(National Center for Advancing Translational Sciences (NCATS), 2011)", "test": "qHTS Assay to Find Inhibitors of Chronic Active B-Cell Receptor Signaling", "conditions": "ABC-DLBCL IkBa-CBG/CBR reporter, luminescence ratio (green luciferase fused to IkBa over red control in TMD8 lymphoma cells), 4 h", "procedure,_shortened": "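Doxycycline induced both beetle luciferases in TMD8 lymphoma cells; IKK-driven degradation limits the IkappaBalpha-fused green signal, while red luminescence normalises for cell number and nonspecific effects. Compounds tested up to 46 uM, 4 hrs.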", "key": {"[1]": {"conditions": "measured here: CBR red luminescence, cell number"}, "[2]": {"conditions": "measured here: IkBa-CBG green luminescence"}}, "note": "Some of the results follow. Further columns of the screen follow, without active or inactive calls. Most of these compounds were active or inconclusive in the main read-out, so they are no random draw. Words in brackets tell the shape of the fitted curve; partial curves, single points and poor fits give uncertain potencies."}
{"smiles": "CC(C(=O)Nc1sc2c(c1C(=O)NCC1CCCO1)CCC2)N1C(=O)c2ccccc2C1=O", "note": "(stereo not drawn)", "values": [{"measurement": "AC50", "setting": "[1]", "result": "7.31 µM [falling, partial curve]"}]}
{"smiles": "CCOC(=O)c1cc(C#N)c(=S)[nH]c1C", "values": [{"measurement": "AC50", "setting": "[1]", "result": "20 µM [falling, single point]"}]}
{"smiles": "O=C1Nc2ccccc2C12Nc1ccccc1S2", "note": "(stereo not drawn)", "values": [{"measurement": "AC50", "setting": "[1]", "result": "6.51 µM [rising, partial curve, poor fit]"}]}
{"smiles": "COc1cc(C(=O)Nc2cc(Cl)ccc2C)c(-n2cnnn2)cc1OC", "values": [{"measurement": "AC50", "setting": "[1]", "result": "23.1 µM [rising, partial curve, poor fit]"}]}
{"smiles": "Cc1onc(-c2ccccc2)c1NC(=O)N(CCC#N)Cc1ccccc1", "values": [{"measurement": "AC50", "setting": "[1]", "result": "12.6 µM [falling, partial curve, poor fit]"}]}
{"smiles": "CCc1ccc(-c2cc(C)no2)cc1S(=O)(=O)NCCN1CCC(C)CC1", "values": [{"measurement": "AC50", "setting": "[1]", "result": "3.98 µM [falling, single point]"}]}
{"smiles": "COC(=O)c1cc(Cl)nc2ccccc12", "values": [{"measurement": "AC50", "setting": "[1]", "result": "14.1 µM [rising, single point]"}]}
{"smiles": "COc1ccc(C(=O)Nc2ccc(Cl)c(S(=O)(=O)N3CCOCC3)c2)cc1", "values": [{"measurement": "AC50", "setting": "[1]", "result": "18.4 µM [falling, single point]"}]}
{"smiles": "O=C(Cc1ccc(Br)cc1)c1ccc(O)cc1O", "values": [{"measurement": "AC50", "setting": "[1]", "result": "3.55 µM [rising, full curve, poor fit]"}]}
{"smiles": "COc1ccc(CCNC(=O)Cn2c(=O)cnc3ccccc32)cc1", "values": [{"measurement": "AC50", "setting": "[1]", "result": "25.1 µM [rising, single point]"}, {"measurement": "AC50", "setting": "[2]", "result": "17.8 µM [falling, partial curve]"}]}
{"smiles": "CCOc1ccc(N=c2scc(-c3ccc(OC)cc3)n2CCO)cc1", "values": [{"measurement": "AC50", "setting": "[1]", "result": "3.26 µM [rising, single point]"}]}
{"smiles": "Cc1ccc(O)c(/C=N/NC(=O)COc2ccc3c(C)cc(=O)oc3c2)c1", "values": [{"measurement": "AC50", "setting": "[1]", "result": "12.6 µM [rising, single point]"}]}
{"smiles": "COc1ccc(CCNS(=O)(=O)c2ccc(F)c(C(=O)Nc3ccc(Cl)cc3)c2)cc1OC", "values": [{"measurement": "AC50", "setting": "[1]", "result": "7.08 µM [falling, partial curve]"}]}
{"smiles": "COc1ccc(CCN2C(=O)CN=C2Nc2ccc(F)cc2)cc1OC", "values": [{"measurement": "AC50", "setting": "[1]", "result": "12.6 µM [rising, single point]"}]}
{"smiles": "O=C(CNC(=O)C1COc2ccccc2O1)N/N=C/c1ccc(O)cc1O", "note": "(stereo not drawn)", "values": [{"measurement": "AC50", "setting": "[1]", "result": "23.1 µM [rising, single point]"}]}
{"smiles": "COc1cccc(NC(=O)CSc2nc(=O)n(Cc3ccncc3)c3c2CCCC3)c1", "values": [{"measurement": "AC50", "setting": "[1]", "result": "16.4 µM [falling, partial curve, poor fit]"}]}
{"smiles": "Nn1c(Cc2cccc3ccccc23)nnc1SCc1ccc(Cl)c(Cl)c1", "values": [{"measurement": "AC50", "setting": "[1]", "result": "29.1 µM [falling, single point]"}]}
{"smiles": "O=C(c1cc2sccc2n1Cc1ccccc1)N1CCN(c2nc3ccccc3s2)CC1", "values": [{"measurement": "AC50", "setting": "[1]", "result": "6.31 µM [rising, single point]"}]}
{"smiles": "CCc1c(C(=O)N/N=C/c2ccc(C)o2)csc1C", "values": [{"measurement": "AC50", "setting": "[1]", "result": "20.6 µM [falling, single point]"}]}
{"smiles": "Cn1c(NCCCO)nc2c(c1=O)C1(CCCCC1)Cc1ccccc1-2", "values": [{"measurement": "AC50", "setting": "[1]", "result": "8.91 µM [rising, partial curve]"}, {"measurement": "AC50", "setting": "[2]", "result": "35.5 µM [falling, partial curve, poor fit]"}]}
{"smiles": "c1ccc(-c2cc(CSc3nc4ccccc4[nH]3)on2)cc1", "values": [{"measurement": "AC50", "setting": "[1]", "result": "25.9 µM [rising, partial curve, poor fit]"}]}
{"smiles": "CCC1(C)N=C(N)Nc2nc3cc(C)c(C)cc3n21", "note": "(stereo not drawn)", "values": [{"measurement": "AC50", "setting": "[1]", "result": "11.2 µM [rising, single point]"}]}
{"smiles": "c1cc(Nc2cccc3nccnc23)c2nccnc2c1", "values": [{"measurement": "AC50", "setting": "[1]", "result": "6.31 µM [rising, single point]"}]}
{"smiles": "CC1CCCC(C)N1C(=O)COC(=O)c1ccccc1O", "note": "(stereo not drawn)", "values": [{"measurement": "AC50", "setting": "[1]", "result": "14.6 µM [rising, partial curve]"}]}
{"smiles": "CCC(=O)Nc1ccccc1-c1nnn(CC(=O)N2c3ccccc3CC2C)n1", "note": "(stereo not drawn)", "values": [{"measurement": "AC50", "setting": "[1]", "result": "0.0731 µM [rising, full curve, poor fit]"}]}
{"smiles": "O=C(C1=C[C@H](C2CCCCC2)C[C@H](OCCCCO)O1)N1CCOCC1", "values": [{"measurement": "AC50", "setting": "[1]", "result": "5.62 µM [rising, full curve]"}]}
{"smiles": "O=C(NNC(=O)c1nc(Cl)ccc1Cl)c1ccc(F)cc1", "values": [{"measurement": "AC50", "setting": "[1]", "result": "6.31 µM [falling, single point]"}]}
{"smiles": "Cc1[nH]c2ccccc2c1C(=O)C(=O)N1CCCc2ccccc21", "values": [{"measurement": "AC50", "setting": "[1]", "result": "11.6 µM [rising, partial curve, poor fit]"}]}
{"smiles": "Cc1ccc(S(=O)(=O)CCC(=O)Nc2sccc2C(N)=O)cc1", "values": [{"measurement": "AC50", "setting": "[2]", "result": "5.8 µM [falling, partial curve, poor fit]"}]}
{"smiles": "CC(=O)CSc1ncnc2sc3c(c12)CCC3", "values": [{"measurement": "AC50", "setting": "[1]", "result": "2 µM [rising, partial curve, poor fit]"}]}
{"smiles": "CCOC(=O)C(C)Oc1ccc(OCc2ccccc2)cc1", "note": "(stereo not drawn)", "values": [{"measurement": "AC50", "setting": "[1]", "result": "1.58 µM [falling, partial curve, poor fit]"}]}
{"smiles": "COC(=O)c1ccc2c(c1)NC1=C(C(=O)CC(C)(C)C1)C(c1ccncc1)N2", "note": "(stereo not drawn)", "values": [{"measurement": "AC50", "setting": "[2]", "result": "25.9 µM [rising, partial curve, poor fit]"}]}
{"smiles": "COCCNC(=O)NC(=O)COC(=O)Cc1ccc2c(c1)OCCO2", "values": [{"measurement": "AC50", "setting": "[1]", "result": "9.2 µM [rising, partial curve, poor fit]"}]}
{"smiles": "O=C(CSc1nc2c(c(=O)[nH]1)CCC2)Nc1ccc(F)cc1", "values": [{"measurement": "AC50", "setting": "[1]", "result": "7.08 µM [falling, partial curve, poor fit]"}]}
{"smiles": "O=C(c1ccco1)N1CCN(c2nc(C(F)(F)F)nc3c2nnn3Cc2ccccc2)CC1", "values": [{"measurement": "AC50", "setting": "[1]", "result": "8.2 µM [rising, partial curve, poor fit]"}]}
{"smiles": "O=C(NCC(c1ccco1)N1CCc2ccccc21)C(=O)Nc1ccc(F)cc1F", "note": "(stereo not drawn)", "values": [{"measurement": "AC50", "setting": "[2]", "result": "23.1 µM [falling, single point]"}]}
{"smiles": "COc1cc(NC(=O)C/C(C)=N/NC(=O)C(=O)NCCO)c(OC)cc1Cl", "values": [{"measurement": "AC50", "setting": "[1]", "result": "12.6 µM [falling, partial curve, poor fit]"}]}
{"smiles": "COC(=O)C1=C(C)NC(C)=C([N+](=O)[O-])C1c1ccccc1C(F)(F)F", "note": "(stereo not drawn)", "values": [{"measurement": "AC50", "setting": "[1]", "result": "6.51 µM [falling, partial curve, poor fit]"}, {"measurement": "AC50", "setting": "[2]", "result": "32.6 µM [rising, partial curve, poor fit]"}]}
{"smiles": "CCc1c(O)nc(SC2CC(=O)N(c3ccccc3)C2=O)[nH]c1=O", "note": "(stereo not drawn)", "values": [{"measurement": "AC50", "setting": "[1]", "result": "35.5 µM [rising, single point]"}]}
{"smiles": "CN1CCN(C(=O)C2CCC(=O)N(CCc3cccc(F)c3)C2)CC1", "note": "(stereo not drawn)", "values": [{"measurement": "AC50", "setting": "[1]", "result": "3.16 µM [rising, single point]"}]}
